Among the data in paper PMC8124558 are binding values, retold here.

Chains of the proteins cited; added tags and fusions are not shown. Residues count along the entry.
UniProt P02751, residues 32-2477: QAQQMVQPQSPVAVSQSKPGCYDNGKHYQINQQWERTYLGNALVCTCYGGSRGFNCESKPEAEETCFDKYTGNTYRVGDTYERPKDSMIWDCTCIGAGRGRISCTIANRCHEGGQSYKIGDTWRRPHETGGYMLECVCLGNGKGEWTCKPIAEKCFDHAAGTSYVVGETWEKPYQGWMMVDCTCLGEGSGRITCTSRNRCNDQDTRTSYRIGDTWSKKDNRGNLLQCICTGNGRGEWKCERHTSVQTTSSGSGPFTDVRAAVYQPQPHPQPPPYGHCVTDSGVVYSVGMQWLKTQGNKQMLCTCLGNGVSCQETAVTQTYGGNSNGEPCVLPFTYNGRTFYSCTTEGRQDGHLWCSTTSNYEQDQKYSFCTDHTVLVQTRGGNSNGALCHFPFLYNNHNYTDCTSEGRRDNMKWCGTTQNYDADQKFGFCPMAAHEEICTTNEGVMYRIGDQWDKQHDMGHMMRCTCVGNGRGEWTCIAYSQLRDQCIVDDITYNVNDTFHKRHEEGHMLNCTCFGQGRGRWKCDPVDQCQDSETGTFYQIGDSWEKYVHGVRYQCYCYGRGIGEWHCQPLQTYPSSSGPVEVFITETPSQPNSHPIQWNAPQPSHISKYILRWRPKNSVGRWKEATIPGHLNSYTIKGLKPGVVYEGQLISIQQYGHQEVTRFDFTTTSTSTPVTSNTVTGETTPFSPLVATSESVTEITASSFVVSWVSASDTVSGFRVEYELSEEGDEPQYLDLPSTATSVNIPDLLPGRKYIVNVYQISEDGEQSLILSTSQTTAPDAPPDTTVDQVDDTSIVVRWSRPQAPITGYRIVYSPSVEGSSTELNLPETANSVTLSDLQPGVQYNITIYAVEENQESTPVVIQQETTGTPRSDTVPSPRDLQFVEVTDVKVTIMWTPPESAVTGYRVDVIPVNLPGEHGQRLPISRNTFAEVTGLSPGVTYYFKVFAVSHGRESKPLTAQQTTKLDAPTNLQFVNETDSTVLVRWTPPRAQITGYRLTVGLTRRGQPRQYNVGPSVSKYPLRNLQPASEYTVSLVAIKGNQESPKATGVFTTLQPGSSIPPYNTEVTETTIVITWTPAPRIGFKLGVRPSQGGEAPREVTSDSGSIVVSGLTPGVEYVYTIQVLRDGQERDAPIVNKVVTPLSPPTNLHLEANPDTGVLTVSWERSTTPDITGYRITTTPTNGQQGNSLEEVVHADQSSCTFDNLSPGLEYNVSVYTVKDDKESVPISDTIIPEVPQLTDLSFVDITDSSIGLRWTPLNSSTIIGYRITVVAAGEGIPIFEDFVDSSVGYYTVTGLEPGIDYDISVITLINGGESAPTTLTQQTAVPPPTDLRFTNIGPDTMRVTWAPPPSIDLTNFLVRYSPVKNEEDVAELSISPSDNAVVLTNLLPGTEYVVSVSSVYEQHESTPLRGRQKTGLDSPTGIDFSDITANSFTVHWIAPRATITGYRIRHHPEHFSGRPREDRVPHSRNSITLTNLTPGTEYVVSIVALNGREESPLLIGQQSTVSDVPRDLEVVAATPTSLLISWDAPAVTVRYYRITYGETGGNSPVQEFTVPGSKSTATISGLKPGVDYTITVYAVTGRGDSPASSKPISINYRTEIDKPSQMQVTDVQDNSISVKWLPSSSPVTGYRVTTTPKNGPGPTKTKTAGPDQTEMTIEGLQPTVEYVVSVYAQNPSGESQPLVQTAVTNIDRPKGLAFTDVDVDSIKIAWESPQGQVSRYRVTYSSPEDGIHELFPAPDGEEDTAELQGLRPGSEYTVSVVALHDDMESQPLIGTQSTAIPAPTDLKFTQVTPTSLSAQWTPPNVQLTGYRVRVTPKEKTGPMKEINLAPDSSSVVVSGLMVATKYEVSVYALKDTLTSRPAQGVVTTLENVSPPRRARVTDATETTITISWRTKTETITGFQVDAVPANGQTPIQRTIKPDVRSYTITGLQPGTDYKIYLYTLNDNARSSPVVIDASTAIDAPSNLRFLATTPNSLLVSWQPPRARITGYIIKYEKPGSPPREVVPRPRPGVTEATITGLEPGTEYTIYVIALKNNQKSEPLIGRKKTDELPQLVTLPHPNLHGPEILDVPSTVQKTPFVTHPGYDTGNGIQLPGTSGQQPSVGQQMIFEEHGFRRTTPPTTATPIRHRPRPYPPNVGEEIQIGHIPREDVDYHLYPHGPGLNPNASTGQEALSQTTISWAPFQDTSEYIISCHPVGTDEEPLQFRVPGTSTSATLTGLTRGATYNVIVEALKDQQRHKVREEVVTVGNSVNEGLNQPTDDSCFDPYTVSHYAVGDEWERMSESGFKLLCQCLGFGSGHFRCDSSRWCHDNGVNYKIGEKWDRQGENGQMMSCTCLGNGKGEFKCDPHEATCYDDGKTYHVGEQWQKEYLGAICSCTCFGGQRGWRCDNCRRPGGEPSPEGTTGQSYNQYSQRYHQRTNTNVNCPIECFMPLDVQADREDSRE
UniProt P07942, residues 22-1786: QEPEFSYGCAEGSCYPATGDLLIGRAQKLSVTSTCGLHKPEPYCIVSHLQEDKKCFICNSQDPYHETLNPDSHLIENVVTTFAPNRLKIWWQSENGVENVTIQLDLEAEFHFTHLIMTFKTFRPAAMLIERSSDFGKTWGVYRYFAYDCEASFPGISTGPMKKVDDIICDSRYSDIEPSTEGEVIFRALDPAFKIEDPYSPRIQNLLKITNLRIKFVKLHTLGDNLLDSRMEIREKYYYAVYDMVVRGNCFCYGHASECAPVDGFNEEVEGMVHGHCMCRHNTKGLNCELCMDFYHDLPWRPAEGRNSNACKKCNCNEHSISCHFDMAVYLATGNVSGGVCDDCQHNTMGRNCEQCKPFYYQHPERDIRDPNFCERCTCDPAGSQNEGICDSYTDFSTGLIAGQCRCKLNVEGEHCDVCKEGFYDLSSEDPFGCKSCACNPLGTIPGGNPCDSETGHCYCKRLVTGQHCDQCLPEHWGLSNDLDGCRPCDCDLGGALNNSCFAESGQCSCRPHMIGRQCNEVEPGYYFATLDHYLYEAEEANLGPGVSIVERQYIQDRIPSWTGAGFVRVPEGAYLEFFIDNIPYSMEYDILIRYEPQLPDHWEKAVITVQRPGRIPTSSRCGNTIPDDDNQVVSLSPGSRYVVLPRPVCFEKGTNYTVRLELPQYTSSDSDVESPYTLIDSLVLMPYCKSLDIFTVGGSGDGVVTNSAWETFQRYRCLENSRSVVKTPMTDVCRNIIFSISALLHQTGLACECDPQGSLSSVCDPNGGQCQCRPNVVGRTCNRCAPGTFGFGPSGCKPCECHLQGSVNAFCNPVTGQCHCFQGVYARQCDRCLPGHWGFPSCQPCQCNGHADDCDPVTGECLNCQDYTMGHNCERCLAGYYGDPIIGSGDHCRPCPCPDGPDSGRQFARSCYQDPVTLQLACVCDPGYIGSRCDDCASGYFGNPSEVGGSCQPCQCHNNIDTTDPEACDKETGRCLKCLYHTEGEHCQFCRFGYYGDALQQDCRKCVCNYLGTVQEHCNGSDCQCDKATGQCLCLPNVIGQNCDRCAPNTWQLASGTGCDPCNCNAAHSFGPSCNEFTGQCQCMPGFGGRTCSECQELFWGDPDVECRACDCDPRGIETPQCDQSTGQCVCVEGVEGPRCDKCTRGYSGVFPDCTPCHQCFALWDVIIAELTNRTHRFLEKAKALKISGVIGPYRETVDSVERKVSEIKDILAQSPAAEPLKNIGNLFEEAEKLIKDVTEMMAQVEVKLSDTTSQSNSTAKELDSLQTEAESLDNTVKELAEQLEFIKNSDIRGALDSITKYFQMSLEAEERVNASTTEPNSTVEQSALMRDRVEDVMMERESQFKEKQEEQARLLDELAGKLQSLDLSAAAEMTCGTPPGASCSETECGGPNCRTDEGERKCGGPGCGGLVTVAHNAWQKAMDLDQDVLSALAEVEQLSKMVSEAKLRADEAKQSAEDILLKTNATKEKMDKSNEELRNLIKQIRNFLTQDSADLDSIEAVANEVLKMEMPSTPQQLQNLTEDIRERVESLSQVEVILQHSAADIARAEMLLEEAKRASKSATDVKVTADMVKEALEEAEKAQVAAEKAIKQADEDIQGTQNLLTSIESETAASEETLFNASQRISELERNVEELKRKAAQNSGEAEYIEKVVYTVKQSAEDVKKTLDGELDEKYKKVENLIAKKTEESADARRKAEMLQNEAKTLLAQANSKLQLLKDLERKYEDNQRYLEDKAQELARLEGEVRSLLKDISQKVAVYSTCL

Results are given in words; binding and its absence hold for the method and conditions named. Binding seen in cells or lysates may run through a third protein. Some results given as binding are weak or reduced against the parent protein; the word gives no strength. Tags and fused reporters may be left off the sequences shown.

Common to all, as to assay: cross-linking; Sulfo-SBED-labelled phage (10^12 pfu) incubated 1 h at 4 °C in the dark with hCMEC/D3 cells, with or without 20 ng/mL rhIL-1β for 2 h; UV cross-linking, cleavage with TCEP, lysis, capture of biotin-labelled proteins on streptavidin beads, nLC-MS/MS; Ph88/WT phage ratio higher than 1.33 as criterion; two independent experiments; only the binder purified
Assay [1] deals with fibronectin (endogenous, hCMEC/D3 cells) (human (endogenous in hCMEC/D3)) (UniProt P02751).
Assay [2] has as its target T1, flotillin-1 (endogenous, hCMEC/D3 cells) (human (endogenous in hCMEC/D3)) (UniProt O75955).
T1 sequence: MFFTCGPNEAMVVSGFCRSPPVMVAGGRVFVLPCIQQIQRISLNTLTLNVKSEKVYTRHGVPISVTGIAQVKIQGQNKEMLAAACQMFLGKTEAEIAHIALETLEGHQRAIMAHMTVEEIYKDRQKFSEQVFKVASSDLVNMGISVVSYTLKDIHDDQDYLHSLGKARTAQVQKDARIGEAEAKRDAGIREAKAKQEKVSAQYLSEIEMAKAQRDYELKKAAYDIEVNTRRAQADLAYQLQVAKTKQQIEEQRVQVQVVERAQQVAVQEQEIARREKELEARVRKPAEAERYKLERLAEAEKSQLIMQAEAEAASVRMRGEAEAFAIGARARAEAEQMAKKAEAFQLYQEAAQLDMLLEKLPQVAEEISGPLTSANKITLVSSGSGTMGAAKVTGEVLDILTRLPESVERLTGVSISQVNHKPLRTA

For assay [3], the target named is laminin subunit β1 (endogenous, hCMEC/D3 cells) (human (endogenous in hCMEC/D3)) (UniProt P07942).

B1: phage 88 (M13 phage displaying peptide-88 as a fusion of the coat protein pIII) (peptide)
chain: TPMMPETSQRFK
modifications: Sulfo-SBED on primary amines of the phage surface
Take B1: the binding entry in assay [1] is “binds”; in assay [2], “no binding”; in assay [3], “binds”.
